Measurements reported in the supplement of paper PMC10849652.
The other results are listed elsewhere or left out.

The chains behind the UniProt entries cited, without tags or fusion partners. Where a name states a change or a piece, a line headed by the entry shows the natural chain unless it says otherwise.
UniProt O15372, whole entry, looked up: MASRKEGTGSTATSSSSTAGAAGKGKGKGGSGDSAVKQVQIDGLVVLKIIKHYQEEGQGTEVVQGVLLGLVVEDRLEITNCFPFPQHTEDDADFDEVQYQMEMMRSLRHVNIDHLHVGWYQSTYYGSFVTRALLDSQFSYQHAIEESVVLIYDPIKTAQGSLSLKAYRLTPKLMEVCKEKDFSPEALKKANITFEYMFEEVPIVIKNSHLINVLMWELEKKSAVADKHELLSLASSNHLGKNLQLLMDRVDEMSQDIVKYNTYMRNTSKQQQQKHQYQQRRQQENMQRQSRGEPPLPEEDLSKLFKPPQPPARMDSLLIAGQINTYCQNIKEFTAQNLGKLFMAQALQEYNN
UniProt P60228, whole entry, looked up: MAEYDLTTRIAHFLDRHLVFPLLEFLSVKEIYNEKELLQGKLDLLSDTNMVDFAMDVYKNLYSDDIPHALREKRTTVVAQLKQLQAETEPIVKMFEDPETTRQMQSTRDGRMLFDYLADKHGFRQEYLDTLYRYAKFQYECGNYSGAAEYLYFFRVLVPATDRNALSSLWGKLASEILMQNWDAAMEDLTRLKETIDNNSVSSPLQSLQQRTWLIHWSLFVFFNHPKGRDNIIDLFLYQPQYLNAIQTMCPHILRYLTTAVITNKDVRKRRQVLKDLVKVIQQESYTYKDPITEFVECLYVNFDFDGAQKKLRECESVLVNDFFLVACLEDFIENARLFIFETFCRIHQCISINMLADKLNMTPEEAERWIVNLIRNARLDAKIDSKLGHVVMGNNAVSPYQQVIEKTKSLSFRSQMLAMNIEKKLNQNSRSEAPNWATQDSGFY
UniProt O75821, whole entry, looked up: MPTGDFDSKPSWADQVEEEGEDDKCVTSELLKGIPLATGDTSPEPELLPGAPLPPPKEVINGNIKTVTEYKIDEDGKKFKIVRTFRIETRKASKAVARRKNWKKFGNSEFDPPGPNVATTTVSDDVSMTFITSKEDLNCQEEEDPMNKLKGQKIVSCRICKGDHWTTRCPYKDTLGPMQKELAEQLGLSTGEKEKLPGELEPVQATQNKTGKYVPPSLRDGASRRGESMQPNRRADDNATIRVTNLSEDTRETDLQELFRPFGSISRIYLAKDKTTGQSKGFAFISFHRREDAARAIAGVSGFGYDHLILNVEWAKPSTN
UniProt O14638, whole entry, looked up: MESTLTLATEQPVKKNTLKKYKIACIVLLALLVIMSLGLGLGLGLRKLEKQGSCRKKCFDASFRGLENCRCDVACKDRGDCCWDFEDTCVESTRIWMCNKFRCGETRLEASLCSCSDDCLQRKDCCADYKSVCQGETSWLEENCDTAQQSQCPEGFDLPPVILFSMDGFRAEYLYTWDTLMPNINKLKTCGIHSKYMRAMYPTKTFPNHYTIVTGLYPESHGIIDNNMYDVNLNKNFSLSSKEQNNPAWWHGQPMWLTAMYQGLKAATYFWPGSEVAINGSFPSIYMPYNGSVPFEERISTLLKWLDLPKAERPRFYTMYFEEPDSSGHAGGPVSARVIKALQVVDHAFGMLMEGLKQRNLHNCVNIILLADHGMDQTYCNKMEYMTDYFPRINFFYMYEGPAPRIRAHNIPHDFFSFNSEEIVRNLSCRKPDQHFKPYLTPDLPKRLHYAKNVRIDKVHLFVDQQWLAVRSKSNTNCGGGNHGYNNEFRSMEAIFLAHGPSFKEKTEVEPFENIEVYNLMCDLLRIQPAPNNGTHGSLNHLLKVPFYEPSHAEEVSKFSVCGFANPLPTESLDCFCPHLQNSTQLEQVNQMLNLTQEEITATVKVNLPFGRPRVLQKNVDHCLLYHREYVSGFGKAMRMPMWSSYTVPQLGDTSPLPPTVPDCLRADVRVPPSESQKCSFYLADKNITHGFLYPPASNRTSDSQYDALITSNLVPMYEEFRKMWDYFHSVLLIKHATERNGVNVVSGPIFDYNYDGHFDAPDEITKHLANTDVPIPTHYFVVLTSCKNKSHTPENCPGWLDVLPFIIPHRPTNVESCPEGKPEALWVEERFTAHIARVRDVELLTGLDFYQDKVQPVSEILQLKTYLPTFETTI
UniProt P19525: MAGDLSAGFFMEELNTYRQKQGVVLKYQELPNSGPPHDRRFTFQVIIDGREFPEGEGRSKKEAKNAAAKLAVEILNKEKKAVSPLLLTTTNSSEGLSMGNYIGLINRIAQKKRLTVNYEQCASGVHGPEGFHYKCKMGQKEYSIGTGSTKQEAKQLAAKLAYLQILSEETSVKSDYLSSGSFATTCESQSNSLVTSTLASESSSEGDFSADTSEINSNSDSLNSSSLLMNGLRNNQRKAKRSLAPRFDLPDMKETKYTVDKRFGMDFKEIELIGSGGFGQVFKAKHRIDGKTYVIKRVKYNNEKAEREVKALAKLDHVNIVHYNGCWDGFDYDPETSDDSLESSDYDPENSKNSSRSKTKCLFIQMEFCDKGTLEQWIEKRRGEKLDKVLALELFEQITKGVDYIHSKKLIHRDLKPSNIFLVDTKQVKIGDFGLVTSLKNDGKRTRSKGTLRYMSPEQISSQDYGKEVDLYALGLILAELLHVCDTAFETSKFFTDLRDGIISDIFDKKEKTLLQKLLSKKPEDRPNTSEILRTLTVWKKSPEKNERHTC
UniProt Q15369, whole entry, looked up: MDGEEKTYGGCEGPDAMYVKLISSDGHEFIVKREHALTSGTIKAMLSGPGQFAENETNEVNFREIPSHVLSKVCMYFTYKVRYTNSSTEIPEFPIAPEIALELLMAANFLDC
UniProt P54852: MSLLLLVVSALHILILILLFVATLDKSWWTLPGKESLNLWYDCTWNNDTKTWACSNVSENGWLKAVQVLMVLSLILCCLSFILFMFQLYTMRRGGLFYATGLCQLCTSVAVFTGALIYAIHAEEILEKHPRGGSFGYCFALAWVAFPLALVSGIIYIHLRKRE
UniProt Q9BY44: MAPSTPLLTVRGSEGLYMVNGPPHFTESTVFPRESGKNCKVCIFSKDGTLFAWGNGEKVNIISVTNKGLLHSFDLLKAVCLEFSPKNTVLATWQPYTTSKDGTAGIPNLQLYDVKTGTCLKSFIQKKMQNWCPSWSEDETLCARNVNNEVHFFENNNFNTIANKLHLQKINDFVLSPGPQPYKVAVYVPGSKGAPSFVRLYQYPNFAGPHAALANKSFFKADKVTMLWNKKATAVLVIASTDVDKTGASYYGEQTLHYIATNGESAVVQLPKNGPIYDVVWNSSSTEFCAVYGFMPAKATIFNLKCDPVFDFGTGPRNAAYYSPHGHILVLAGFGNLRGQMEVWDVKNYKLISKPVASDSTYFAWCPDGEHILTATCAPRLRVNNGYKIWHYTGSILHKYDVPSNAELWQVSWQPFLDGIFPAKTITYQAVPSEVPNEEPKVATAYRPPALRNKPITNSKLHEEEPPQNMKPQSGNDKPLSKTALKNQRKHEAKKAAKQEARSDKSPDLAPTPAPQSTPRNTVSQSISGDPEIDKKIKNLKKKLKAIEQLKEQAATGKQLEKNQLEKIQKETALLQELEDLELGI
UniProt P41091, whole entry, looked up: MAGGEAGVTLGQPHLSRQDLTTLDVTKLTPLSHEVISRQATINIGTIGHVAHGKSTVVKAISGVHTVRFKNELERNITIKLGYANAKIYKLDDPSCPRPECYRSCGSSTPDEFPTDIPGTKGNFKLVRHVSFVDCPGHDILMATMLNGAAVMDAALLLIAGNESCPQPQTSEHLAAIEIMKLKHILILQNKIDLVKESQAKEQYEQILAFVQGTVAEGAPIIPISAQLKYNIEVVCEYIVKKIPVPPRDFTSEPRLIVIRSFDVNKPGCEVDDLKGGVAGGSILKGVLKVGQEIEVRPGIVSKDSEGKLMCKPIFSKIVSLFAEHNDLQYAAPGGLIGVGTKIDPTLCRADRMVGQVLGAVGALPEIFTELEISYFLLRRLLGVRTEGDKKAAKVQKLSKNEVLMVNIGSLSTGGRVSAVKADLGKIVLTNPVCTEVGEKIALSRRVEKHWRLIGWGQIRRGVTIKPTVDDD
UniProt P20042, whole entry, looked up: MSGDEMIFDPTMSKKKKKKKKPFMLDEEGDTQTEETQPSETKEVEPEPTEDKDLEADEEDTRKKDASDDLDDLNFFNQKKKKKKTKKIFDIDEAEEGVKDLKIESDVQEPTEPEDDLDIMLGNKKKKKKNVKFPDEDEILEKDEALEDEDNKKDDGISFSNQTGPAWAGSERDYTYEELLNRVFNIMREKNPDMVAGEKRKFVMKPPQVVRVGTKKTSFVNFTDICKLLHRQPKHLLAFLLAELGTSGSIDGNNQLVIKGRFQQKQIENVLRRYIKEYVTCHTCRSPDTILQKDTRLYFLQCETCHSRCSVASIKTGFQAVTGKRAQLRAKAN
UniProt Q9BW60: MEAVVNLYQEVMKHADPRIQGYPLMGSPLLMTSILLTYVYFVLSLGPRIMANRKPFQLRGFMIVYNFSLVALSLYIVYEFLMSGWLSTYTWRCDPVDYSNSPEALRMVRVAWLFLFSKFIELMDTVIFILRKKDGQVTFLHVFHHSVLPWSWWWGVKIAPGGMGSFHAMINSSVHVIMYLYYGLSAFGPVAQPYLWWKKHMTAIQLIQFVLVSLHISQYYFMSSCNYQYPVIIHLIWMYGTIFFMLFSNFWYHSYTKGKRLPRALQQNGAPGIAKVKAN
UniProt Q13541: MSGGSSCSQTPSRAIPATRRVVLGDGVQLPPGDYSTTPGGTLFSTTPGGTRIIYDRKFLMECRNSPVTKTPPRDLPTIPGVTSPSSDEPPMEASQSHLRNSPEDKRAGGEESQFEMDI
UniProt Q14249: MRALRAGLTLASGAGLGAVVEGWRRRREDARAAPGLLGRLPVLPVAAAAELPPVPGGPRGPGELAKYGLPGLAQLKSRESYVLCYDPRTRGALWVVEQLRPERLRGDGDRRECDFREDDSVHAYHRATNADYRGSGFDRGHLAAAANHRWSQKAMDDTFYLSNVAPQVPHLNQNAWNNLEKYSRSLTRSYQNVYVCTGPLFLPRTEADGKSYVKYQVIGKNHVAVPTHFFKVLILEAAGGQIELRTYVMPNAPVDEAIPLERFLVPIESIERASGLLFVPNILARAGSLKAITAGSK
UniProt Q9NPA0: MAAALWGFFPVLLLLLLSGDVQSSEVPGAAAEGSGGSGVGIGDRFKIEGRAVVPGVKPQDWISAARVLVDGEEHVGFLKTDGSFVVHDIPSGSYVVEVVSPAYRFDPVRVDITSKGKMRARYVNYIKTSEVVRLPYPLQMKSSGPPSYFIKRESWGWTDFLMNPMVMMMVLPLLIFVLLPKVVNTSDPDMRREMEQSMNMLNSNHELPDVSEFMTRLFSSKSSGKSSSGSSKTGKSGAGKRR
UniProt Q32P44: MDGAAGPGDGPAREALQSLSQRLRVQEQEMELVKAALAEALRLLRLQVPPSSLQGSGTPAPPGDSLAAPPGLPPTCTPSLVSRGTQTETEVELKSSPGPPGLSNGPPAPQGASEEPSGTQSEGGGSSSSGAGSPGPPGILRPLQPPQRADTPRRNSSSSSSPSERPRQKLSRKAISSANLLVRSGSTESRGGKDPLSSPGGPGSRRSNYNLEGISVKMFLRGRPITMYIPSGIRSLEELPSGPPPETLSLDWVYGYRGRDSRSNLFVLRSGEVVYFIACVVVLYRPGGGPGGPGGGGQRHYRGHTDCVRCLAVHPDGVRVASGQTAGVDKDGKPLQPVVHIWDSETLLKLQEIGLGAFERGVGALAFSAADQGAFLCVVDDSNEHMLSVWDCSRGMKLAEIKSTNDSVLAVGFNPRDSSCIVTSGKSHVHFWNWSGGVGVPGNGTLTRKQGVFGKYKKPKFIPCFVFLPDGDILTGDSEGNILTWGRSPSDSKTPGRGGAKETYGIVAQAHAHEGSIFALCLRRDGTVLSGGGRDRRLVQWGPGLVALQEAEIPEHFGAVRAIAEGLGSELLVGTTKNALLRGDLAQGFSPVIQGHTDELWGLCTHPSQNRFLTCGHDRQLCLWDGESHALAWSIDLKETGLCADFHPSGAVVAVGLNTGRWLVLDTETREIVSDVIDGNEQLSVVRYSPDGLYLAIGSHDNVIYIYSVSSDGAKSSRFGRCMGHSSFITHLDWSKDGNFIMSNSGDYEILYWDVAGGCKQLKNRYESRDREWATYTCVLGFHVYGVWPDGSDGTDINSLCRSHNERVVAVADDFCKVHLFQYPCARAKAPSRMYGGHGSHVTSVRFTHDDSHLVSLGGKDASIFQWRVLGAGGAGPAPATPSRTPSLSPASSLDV
UniProt P26641, whole entry, looked up: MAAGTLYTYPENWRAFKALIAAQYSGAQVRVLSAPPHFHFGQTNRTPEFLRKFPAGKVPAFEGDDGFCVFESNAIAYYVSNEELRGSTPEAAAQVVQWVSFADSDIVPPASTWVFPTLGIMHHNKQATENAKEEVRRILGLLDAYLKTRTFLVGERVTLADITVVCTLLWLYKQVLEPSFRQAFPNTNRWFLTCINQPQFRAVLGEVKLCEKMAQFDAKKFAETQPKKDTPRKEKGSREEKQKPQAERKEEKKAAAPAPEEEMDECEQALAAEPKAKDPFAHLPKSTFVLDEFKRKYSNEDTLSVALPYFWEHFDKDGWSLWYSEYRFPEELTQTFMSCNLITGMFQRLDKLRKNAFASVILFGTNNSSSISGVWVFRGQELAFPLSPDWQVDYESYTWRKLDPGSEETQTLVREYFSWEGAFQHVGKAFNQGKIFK

Legend:
Experiment in all cases: log2 fold change, soluble protein after heating vs DMSO (PISA); higher = thermal stabilisation; K562 cells, 10 uM, 30 min; active = over 0.2 and 3.5 SD of the protein, either way, in both replicates (recomputed)
[1] = compound: CS(=O)(=O)c1ccc(-c2cnc(N)c(C(=O)Nc3ccccc3)n2)cc1
Procedure, shortened: (§1)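 Soluble protein was defined as the supernatant after 21,000xg for 90 min. It came from K562 cells at 2×10^6 cells/mL given 10 μM compound for 30 min, heated in aliquots for 3 min across 48°C-58°C, pooled, and extracted in PBS with 0.5% NP-40 at 4°C, and was quantified by TMTpro 16plex LC-MS/MS with equalised channel sums. Thermal stability against control samples, from duplicates, is reported as log2 fold change.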

crizotinib = compound: C[C@@H](Oc1cc(-c2cnn(C3CCNCC3)c2)cnc1N)c1c(Cl)ccc(F)c1Cl [crizotinib]
Procedure, shortened: as §1

[2] = compound: C[C@@H]1COCCN1C2=NC(=NC(=C2)C3(CC3)S(=O)(=O)C)C4=C5C=CNC5=CC=C4
Procedure, shortened: as §1

[3] = compound: C[C@H](C1=CC=C(C=C1)C(=O)NC2=C3C=CNC3=NC=C2)N
Procedure, shortened: as §1

duvelisib = compound: C[C@H](Nc1ncnc2nc[nH]c12)c1cc2cccc(Cl)c2c(=O)n1-c1ccccc1 [duvelisib]
Procedure, shortened: as §1

gandotinib = compound: Cc1cc(Nc2cc(CN3CCOCC3)c3nc(C)c(Cc4ccc(Cl)cc4F)n3n2)n[nH]1 [gandotinib]
Procedure, shortened: as §1

tozasertib = compound: Cc1cc(Nc2cc(N3CCN(C)CC3)nc(Sc3ccc(NC(=O)C4CC4)cc3)n2)n[nH]1 [tozasertib]
Procedure, shortened: as §1

[4] = compound: Cc1cc(SCc2sc(-c3ccc(C(F)(F)F)cc3)nc2C)ccc1OCC(=O)O
Procedure, shortened: as §1

doramapimod = compound: Cc1ccc(-n2nc(C(C)(C)C)cc2NC(=O)Nc2ccc(OCCN3CCOCC3)c3ccccc23)cc1 [doramapimod]
Procedure, shortened: as §1

ispinesib = compound: Cc1ccc(C(=O)N(CCCN)[C@@H](c2nc3cc(Cl)ccc3c(=O)n2Cc2ccccc2)C(C)C)cc1 [ispinesib]
Procedure, shortened: as §1

bafetinib = compound: Cc1ccc(NC(=O)c2ccc(CN3CC[C@H](N(C)C)C3)c(C(F)(F)F)c2)cc1Nc1nccc(-c2cncnc2)n1 [bafetinib]
Procedure, shortened: as §1

[5] = compound: Cc1cccc(CC(=O)N2CCc3c2ccc(-c2cn(C)c4ncnc(N)c24)c3F)n1
Procedure, shortened: as §1

nilotinib = compound: Cc1cn(-c2cc(NC(=O)c3ccc(C)c(Nc4nccc(-c5cccnc5)n4)c3)cc(C(F)(F)F)c2)cn1 [nilotinib]
Procedure, shortened: as §1

[6] = compound: Cc1nc(Nc2n[nH]c3c2CN(C(=O)N[C@H](CN(C)C)c2ccccc2)C3(C)C)c2sccc2n1
Procedure, shortened: as §1

dasatinib = compound: Cc1nc(Nc2ncc(C(=O)Nc3c(C)cccc3Cl)s2)cc(N2CCN(CCO)CC2)n1 [dasatinib]
Procedure, shortened: as §1

[7] = compound: Cc1ncc(-c2ccnc(Nc3ccc(S(C)(=O)=O)cc3)n2)n1C(C)C
Procedure, shortened: as §1

[8] = compound: Cn1cc(-c2ccc3c(c2)CCN3C(=O)Cc2cccc(C(F)(F)F)c2)c2c(N)ncnc21
Procedure, shortened: as §1

[9] = compound: Cn1cc(-c2ccc3nnc(C(F)(F)c4ccc5ncccc5c4)n3n2)cn1
Procedure, shortened: as §1

tipifarnib = compound: Cn1cncc1[C@@](N)(c1ccc(Cl)cc1)c1ccc2c(c1)c(-c1cccc(Cl)c1)cc(=O)n2C [tipifarnib]
Procedure, shortened: as §1

mubritinib = compound: FC(F)(F)c1ccc(/C=C/c2nc(COc3ccc(CCCCn4ccnn4)cc3)co2)cc1 [mubritinib]
Procedure, shortened: as §1

Target | log2 fold change [1] | log2 fold change (crizotinib) | log2 fold change [2] | log2 fold change [3] | log2 fold change (duvelisib) | log2 fold change (gandotinib) | log2 fold change (tozasertib) | log2 fold change [4] | log2 fold change (doramapimod) | log2 fold change (ispinesib) | log2 fold change (bafetinib) | log2 fold change [5] | log2 fold change (nilotinib) | log2 fold change [6] | log2 fold change (dasatinib) | log2 fold change [7] | log2 fold change [8] | log2 fold change [9] | log2 fold change (tipifarnib) | log2 fold change (mubritinib)
EIF3H (UniProt O15372) | inactive: -0.029 | inactive: -0.08 | inactive: -0.077 | inactive: 0.036 | inactive: -0.035 | inactive: 0.006 | inactive: 0.032 | inactive: 0.021 | inactive: 0.01 | inactive: -0.045 | inactive: -0.024 | inactive: 0.033 | inactive: -0.044 | inactive: -0.087 | inactive: -0.022 | inactive: 0.006 | inactive: -0.054 | inactive: 0 | inactive: -0.047 | inactive: 0.017
EIF3E (UniProt P60228) | inactive: 0 | inactive: -0.246 | inactive: -0.052 | inactive: 0.204 | inactive: -0.06 | inactive: 0.087 | inactive: 0.046 | inactive: 0.247 | inactive: 0.055 | inactive: -0.155 | inactive: 0.136 | inactive: 0.075 | inactive: -0.123 | inactive: -0.123 | inactive: -0.119 | inactive: 0.049 | inactive: -0.048 | inactive: -0.054 | inactive: -0.126 | inactive: -0.029
EIF3G (UniProt O75821) | inactive: -0.004 | inactive: -0.029 | inactive: -0.036 | inactive: 0.046 | inactive: -0.04 | inactive: -0.019 | inactive: 0.044 | inactive: 0.017 | inactive: 0.053 | inactive: -0.094 | inactive: -0.006 | inactive: 0.045 | inactive: -0.135 | inactive: -0.109 | inactive: -0.08 | inactive: -0.017 | inactive: -0.025 | inactive: -0.024 | inactive: -0.033 | inactive: 0.022
ENPP3 (UniProt O14638) | inactive: -0.087 | inactive: 0.009 | inactive: -0.001 | inactive: 0.063 | inactive: -0.171 | inactive: -0.11 | – | inactive: 0.051 | inactive: -0.264 | inactive: -0.096 | inactive: 0.033 | inactive: -0.056 | inactive: 0.076 | inactive: -0.074 | inactive: 0.137 | inactive: -0.132 | inactive: -0.066 | inactive: -0.021 | inactive: -0.047 | inactive: 0.093
EIF2AK2 (UniProt P19525) | inactive: 0.035 | inactive: 0.023 | inactive: -0.378 | inactive: 0.543 | inactive: -0.021 | inactive: 0.174 | inactive: 0.058 | inactive: -0.031 | inactive: 0.345 | inactive: -0.344 | inactive: 0.377 | inactive: -0.135 | – | – | inactive: -0.031 | – | inactive: -0.355 | inactive: -0.241 | – | inactive: -0.258
ELOC (UniProt Q15369) | inactive: 0.038 | inactive: 0.074 | active: 0.279 | inactive: -0.07 | – | inactive: -0.001 | – | inactive: -0.015 | inactive: 0.012 | inactive: 0.134 | inactive: 0.003 | inactive: 0.014 | inactive: -0.028 | inactive: 0.013 | inactive: 0.032 | inactive: -0.003 | inactive: 0.116 | inactive: 0.049 | inactive: -0.027 | inactive: 0.005
EMP3 (UniProt P54852) | inactive: 0.13 | inactive: 0.102 | inactive: 0.071 | inactive: -0.168 | inactive: 0.066 | – | inactive: -0.049 | inactive: -0.02 | inactive: -0.031 | inactive: -0.014 | inactive: 0.08 | – | inactive: 0.064 | inactive: 0.076 | inactive: 0.048 | inactive: 0.021 | inactive: 0.026 | inactive: -0.057 | inactive: -0.091 | inactive: -0.056
EIF2A (UniProt Q9BY44) | inactive: -0.063 | inactive: 0.008 | inactive: -0.113 | inactive: 0.034 | inactive: -0.023 | inactive: 0.046 | inactive: 0.025 | inactive: 0.037 | inactive: 0.011 | inactive: 0.022 | inactive: 0.082 | inactive: 0.028 | inactive: -0.019 | inactive: 0.043 | inactive: 0 | inactive: 0.017 | inactive: -0.077 | inactive: -0.065 | inactive: 0.015 | inactive: -0.056
EIF2S3 (UniProt P41091) | inactive: -0.071 | inactive: -0.014 | active: -0.219 | inactive: 0.053 | – | inactive: 0.077 | – | inactive: 0.014 | inactive: 0.038 | inactive: -0.088 | inactive: 0.133 | inactive: -0.023 | inactive: -0.04 | inactive: 0.072 | inactive: 0.043 | inactive: 0.014 | inactive: -0.081 | inactive: -0.052 | inactive: 0.019 | inactive: -0.017
ENDOD1 (UniProt O94919) | inactive: 0.009 | inactive: 0.09 | inactive: -0.04 | inactive: -0.003 | inactive: 0.036 | inactive: 0.052 | inactive: -0.043 | inactive: -0.065 | inactive: -0.03 | inactive: -0.009 | inactive: -0.066 | inactive: -0.096 | inactive: -0.034 | inactive: -0.019 | inactive: 0.041 | inactive: 0.016 | inactive: -0.04 | inactive: 0.053 | inactive: 0.043 | inactive: 0.036
EIF2S2 (UniProt P20042) | inactive: -0.067 | inactive: 0.003 | inactive: -0.214 | inactive: 0.087 | inactive: -0.03 | inactive: -0.003 | inactive: -0.024 | inactive: -0.024 | inactive: 0.036 | inactive: -0.096 | inactive: 0.041 | inactive: 0.008 | inactive: -0.053 | inactive: 0.024 | inactive: 0.071 | inactive: 0.018 | inactive: -0.114 | inactive: -0.073 | inactive: 0.043 | inactive: -0.017
ELOVL1 (UniProt Q9BW60) | inactive: 0.082 | inactive: -0.182 | inactive: -0.065 | inactive: -0.14 | – | inactive: -0.206 | – | inactive: 0.078 | inactive: -0.082 | inactive: -0.297 | inactive: -0.245 | inactive: 0.12 | inactive: -0.126 | inactive: 0.024 | inactive: -0.041 | inactive: -0.011 | inactive: 0.139 | inactive: -0.097 | inactive: -0.093 | inactive: 0.011
EIF4EBP1 (UniProt Q13541) | inactive: -0.062 | inactive: 0.046 | inactive: 0.214 | inactive: -0.073 | inactive: 0.065 | inactive: 0.044 | inactive: 0.017 | inactive: 0.003 | inactive: 0.076 | inactive: 0.041 | inactive: -0.027 | inactive: -0.067 | inactive: 0.084 | inactive: -0.026 | inactive: 0.061 | inactive: 0.002 | inactive: 0.051 | inactive: 0.165 | inactive: -0.18 | inactive: -0.005
ENDOG (UniProt Q14249) | inactive: -0.016 | inactive: 0.047 | inactive: 0.03 | inactive: -0.002 | inactive: -0.029 | inactive: -0.095 | inactive: -0.039 | inactive: 0 | inactive: -0.036 | inactive: -0.022 | inactive: -0.024 | inactive: 0.057 | inactive: -0.058 | inactive: 0.035 | inactive: -0.092 | inactive: 0.014 | inactive: 0.021 | inactive: -0.003 | inactive: -0.043 | inactive: 0.121
EMC7 (UniProt Q9NPA0) | inactive: -0.011 | inactive: 0.018 | inactive: 0.029 | inactive: -0.005 | inactive: 0.066 | inactive: -0.071 | inactive: -0.006 | inactive: -0.012 | inactive: -0.016 | inactive: -0.055 | inactive: -0.002 | inactive: 0.002 | inactive: 0.025 | inactive: -0.005 | inactive: 0.012 | inactive: -0.012 | inactive: 0.038 | inactive: 0.04 | inactive: 0.007 | inactive: 0.011
EML3 (UniProt Q32P44) | inactive: 0.066 | inactive: -0.221 | inactive: -0.076 | inactive: 0.19 | inactive: -0.219 | inactive: 0.206 | inactive: -0.119 | inactive: -0.092 | inactive: 0.203 | inactive: -0.065 | inactive: 0.102 | inactive: 0.087 | inactive: -0.003 | inactive: -0.023 | inactive: 0.148 | inactive: 0.049 | inactive: -0.076 | inactive: -0.361 | inactive: -0.004 | inactive: 0.021
EEF1G isoform 2 (UniProt P26641) | inactive: 0.011 | inactive: 0.015 | inactive: -0.028 | inactive: 0.006 | – | inactive: -0.061 | – | inactive: 0.061 | inactive: -0.013 | inactive: 0.061 | inactive: 0.033 | inactive: 0.083 | inactive: -0.034 | inactive: -0.03 | inactive: -0.032 | inactive: 0.045 | inactive: -0.03 | inactive: -0.05 | inactive: -0.124 | inactive: 0.028

Part of the list above, set out differently:

| Target | log2 fold change [1] | log2 fold change (crizotinib) | log2 fold change [2] | log2 fold change [3] | log2 fold change (duvelisib) | log2 fold change (gandotinib) | log2 fold change (tozasertib) | log2 fold change [4] | log2 fold change (doramapimod) | log2 fold change (ispinesib) | log2 fold change (bafetinib) | log2 fold change [5] | log2 fold change (nilotinib) | log2 fold change [6] | log2 fold change (dasatinib) | log2 fold change [7] | log2 fold change [8] | log2 fold change [9] | log2 fold change (tipifarnib) | log2 fold change (mubritinib) |
| --- | --- | --- | --- | --- | --- | --- | --- | --- | --- | --- | --- | --- | --- | --- | --- | --- | --- | --- | --- | --- |
| EIF2S2 (UniProt P20042) | inactive: -0.067 | inactive: 0.003 | inactive: -0.214 | inactive: 0.087 | inactive: -0.03 | inactive: -0.003 | inactive: -0.024 | inactive: -0.024 | inactive: 0.036 | inactive: -0.096 | inactive: 0.041 | inactive: 0.008 | inactive: -0.053 | inactive: 0.024 | inactive: 0.071 | inactive: 0.018 | inactive: -0.114 | inactive: -0.073 | inactive: 0.043 | inactive: -0.017 |
| EML3 (UniProt Q32P44) | inactive: 0.066 | inactive: -0.221 | inactive: -0.076 | inactive: 0.19 | inactive: -0.219 | inactive: 0.206 | inactive: -0.119 | inactive: -0.092 | inactive: 0.203 | inactive: -0.065 | inactive: 0.102 | inactive: 0.087 | inactive: -0.003 | inactive: -0.023 | inactive: 0.148 | inactive: 0.049 | inactive: -0.076 | inactive: -0.361 | inactive: -0.004 | inactive: 0.021 |
